Experimental data reported in PMC3144021.
Results are given in words; binding and its absence hold for the method and conditions named. In cells and extracts the contact can be indirect. For part of these data: Binding calls can cover weak binding; strength is not graded here.

Tests used:
[1] = biological target: T1, steroid and xenobiotic receptor (SXR) (human (endogenous in LS180 and HepG2)) (UniProt O75469); test: co-IP; LS180 and HepG2 cells treated with 10 μM rifampicin or 10 ng/ml SN-38 for 4 h; cell extracts precipitated with anti-SXR and protein G sepharose overnight at 4°C, blot with anti-RXR; drug added during immunoprecipitation and washing; lysis buffer 20 mM Hepes pH 8, 100 mM NaCl, 0.1% nonidet P-40, 0.25% sodium deoxycholate
T1 sequence: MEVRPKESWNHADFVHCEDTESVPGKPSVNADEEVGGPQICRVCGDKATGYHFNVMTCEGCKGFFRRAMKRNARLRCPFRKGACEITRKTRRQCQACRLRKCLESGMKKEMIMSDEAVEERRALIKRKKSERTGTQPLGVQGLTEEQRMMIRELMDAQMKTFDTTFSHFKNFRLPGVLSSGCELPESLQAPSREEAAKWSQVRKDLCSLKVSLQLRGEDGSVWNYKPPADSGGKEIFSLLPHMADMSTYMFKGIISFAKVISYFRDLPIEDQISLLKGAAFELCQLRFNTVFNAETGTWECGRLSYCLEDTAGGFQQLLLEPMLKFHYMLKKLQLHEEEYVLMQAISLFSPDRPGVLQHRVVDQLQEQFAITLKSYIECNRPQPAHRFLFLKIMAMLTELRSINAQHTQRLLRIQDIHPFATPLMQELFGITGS

[2] = biological target: T1, steroid and xenobiotic receptor (SXR) (human (endogenous in LS180 and HepG2)); test: condition: only cells treated with 1 μg/ml CPT-11 for 4 h; co-IP; LS180 and HepG2 cells treated with 1 μg/ml CPT-11 for 4 h; cell extracts precipitated with anti-SXR, blot with anti-RXR; CPT-11 added during immunoprecipitation and washing
[3] = biological target: T1, steroid and xenobiotic receptor (SXR) (human (endogenous in LS180 and HepG2)); test: co-IP; non-stimulated LS180 and HepG2 cells (vehicle); cell extracts precipitated with anti-SXR, blot with anti-RXR

binding [1]: binds
binding [2]: no binding
binding [3]: binds weakly
Substance: retinoid X receptor (RXR) (human (endogenous in LS180 and HepG2))
